Experimental data: article PMC9402538, “Rational design of a sensitivity-enhanced tracer for discovering efficient APC–Asef inhibitors” (Nature Communications, 2022)
Results are given in words; binding and its absence hold for the method and conditions named. In cells and extracts the contact can be indirect. Some entries that bind do so weakly or less than the wild type. For some assays here: Where a sequence is shown, tags or fusion partners need not be part of it.

The chains behind the UniProt entries cited, without tags or fusion partners. Where a name states a change or a piece, a line headed by the entry shows the natural chain unless it says otherwise. A line that says so, or that is headed by a name, gives the form on record, which may keep a tag or linker. Residues count along the entry.
UniProt P25054: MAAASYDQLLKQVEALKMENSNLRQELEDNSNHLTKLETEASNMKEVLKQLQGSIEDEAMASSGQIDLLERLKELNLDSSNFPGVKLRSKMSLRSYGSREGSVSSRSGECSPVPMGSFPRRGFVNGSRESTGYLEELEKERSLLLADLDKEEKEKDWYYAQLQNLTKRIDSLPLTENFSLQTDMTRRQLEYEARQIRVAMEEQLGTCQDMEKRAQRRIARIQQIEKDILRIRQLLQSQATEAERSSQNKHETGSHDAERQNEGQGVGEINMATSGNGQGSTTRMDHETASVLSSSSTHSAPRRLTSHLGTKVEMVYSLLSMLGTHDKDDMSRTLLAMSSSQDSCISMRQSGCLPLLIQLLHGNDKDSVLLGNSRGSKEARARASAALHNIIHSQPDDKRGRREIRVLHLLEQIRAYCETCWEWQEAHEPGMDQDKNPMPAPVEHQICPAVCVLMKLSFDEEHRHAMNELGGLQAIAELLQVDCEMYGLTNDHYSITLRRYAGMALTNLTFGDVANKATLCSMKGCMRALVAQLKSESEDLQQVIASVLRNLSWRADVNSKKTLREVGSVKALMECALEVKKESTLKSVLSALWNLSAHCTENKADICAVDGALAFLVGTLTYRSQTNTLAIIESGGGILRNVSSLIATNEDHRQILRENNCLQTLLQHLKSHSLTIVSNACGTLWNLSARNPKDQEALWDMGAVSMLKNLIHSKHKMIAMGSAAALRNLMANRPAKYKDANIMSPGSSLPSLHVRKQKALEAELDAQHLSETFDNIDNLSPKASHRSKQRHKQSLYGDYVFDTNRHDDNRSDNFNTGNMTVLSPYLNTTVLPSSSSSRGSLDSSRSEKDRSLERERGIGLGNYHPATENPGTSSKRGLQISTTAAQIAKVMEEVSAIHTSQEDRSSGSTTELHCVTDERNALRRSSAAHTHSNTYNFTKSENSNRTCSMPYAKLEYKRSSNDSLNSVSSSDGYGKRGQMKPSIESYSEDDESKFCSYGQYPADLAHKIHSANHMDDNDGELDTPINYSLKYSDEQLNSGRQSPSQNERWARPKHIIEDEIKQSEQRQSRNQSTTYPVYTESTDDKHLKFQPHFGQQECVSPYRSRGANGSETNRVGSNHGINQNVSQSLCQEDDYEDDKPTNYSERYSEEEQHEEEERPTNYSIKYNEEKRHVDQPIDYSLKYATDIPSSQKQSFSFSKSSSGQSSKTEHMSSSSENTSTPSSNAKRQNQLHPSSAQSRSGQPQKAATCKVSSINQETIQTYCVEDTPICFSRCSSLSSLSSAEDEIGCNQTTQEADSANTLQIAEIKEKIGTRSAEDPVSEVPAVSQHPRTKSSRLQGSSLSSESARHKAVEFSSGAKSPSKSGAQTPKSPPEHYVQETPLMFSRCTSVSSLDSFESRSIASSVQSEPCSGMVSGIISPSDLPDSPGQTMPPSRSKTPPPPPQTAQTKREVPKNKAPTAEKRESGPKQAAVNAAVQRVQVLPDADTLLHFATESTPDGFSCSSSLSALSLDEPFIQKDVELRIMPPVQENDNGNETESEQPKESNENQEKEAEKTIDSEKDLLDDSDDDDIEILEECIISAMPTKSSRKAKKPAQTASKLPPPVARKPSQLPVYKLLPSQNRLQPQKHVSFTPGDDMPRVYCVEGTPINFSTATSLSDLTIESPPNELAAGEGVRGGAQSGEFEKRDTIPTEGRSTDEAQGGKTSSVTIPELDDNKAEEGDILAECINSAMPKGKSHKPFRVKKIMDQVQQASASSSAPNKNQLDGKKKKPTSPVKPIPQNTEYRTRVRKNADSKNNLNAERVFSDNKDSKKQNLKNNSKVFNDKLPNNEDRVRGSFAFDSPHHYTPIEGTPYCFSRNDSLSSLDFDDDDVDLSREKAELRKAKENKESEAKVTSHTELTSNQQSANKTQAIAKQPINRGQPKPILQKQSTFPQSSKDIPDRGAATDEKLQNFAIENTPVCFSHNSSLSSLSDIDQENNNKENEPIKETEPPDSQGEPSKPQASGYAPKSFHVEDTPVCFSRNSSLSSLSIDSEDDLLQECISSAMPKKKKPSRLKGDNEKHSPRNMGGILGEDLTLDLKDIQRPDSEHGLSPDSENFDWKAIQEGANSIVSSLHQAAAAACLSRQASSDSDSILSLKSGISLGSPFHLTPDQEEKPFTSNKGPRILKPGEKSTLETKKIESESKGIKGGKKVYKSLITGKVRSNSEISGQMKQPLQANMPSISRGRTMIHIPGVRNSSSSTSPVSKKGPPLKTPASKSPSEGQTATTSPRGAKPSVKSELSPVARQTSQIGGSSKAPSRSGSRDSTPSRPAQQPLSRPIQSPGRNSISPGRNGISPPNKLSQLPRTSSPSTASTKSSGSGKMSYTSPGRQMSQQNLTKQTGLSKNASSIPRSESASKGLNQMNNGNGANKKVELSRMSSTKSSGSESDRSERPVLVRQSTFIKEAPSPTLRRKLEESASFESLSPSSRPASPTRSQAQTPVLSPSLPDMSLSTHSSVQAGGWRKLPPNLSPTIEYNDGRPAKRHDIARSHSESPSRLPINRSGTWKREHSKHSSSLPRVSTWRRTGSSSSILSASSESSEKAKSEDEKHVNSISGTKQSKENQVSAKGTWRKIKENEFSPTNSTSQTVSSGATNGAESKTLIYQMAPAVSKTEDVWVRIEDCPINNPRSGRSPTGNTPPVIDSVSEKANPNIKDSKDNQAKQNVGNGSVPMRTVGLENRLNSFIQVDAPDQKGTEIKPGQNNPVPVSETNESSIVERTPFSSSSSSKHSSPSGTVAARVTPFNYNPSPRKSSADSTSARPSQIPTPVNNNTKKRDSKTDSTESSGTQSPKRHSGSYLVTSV
FLAG-tagged APC (303–876): residues 303-876 of P25054

Tests used:
[1] = molecular target: FLAG-tagged APC (303–876) (UniProt P25054); experiment: co-IP; HEK293T lysate with FLAG-APC (303–876) and HA-Asef (170–632), NP-40 buffer; lysate treated with DMSO, MAI-203 (25 μM) or MAI-516 (0.2, 1, 5 μM) for 2 h at 4 °C, then anti-FLAG M2 gel; anti-HA blot
[2] = molecular target: endogenous WT full-length APC of RKO cells (human (endogenous in RKO)) (UniProt P25054); experiment: co-IP; endogenous proteins of SW480, DLD1 and RKO cells treated with MAIT-516 or MAIT-203 for 48 h; anti-APC antibody overnight and protein A/G agarose; anti-Asef blot

Binder	binding [1]	binding [2]
hemagglutinin (HA)-tagged Asef (170–632) (domain or fragment, UniProt Q9NR80 170-632) SSSHHYSHPGGGGEQLAINELISDGSVVCAEALWDHVTMDDQELGFKAGDVIEVMDATNREWWWGRVADGEGWFPASFVRLRVNQDEPADDDAPLAGNSGAEDGGAEAQSSKDQMRTNVINEILSTERDYIKHLRDICEGYVRQCRKRADMFSEEQLRTIFGNIEDIYRCQKAFVKALEQRFNRERPHLSELGACFLEHQADFQIYSEYCNNHPNACVELSRLTKLSKYVYFFEACRLLQKMIDISLDGFLLTPVQKICKYPLQLAELLKYTHPQHRDFKDVEAALHAMKNVAQLINERKRRLENIDKIAQWQSSIEDWEGEDLLVRSSELIYSGELTRVTQPQAKSQQRMFFLFDHQLIYCKKDLLRRDVLYYKGRLDMDGLEVVDLEDGKDRDLHVSIKNAFRLHRGATGDSHLLCTRKPEQKQRWLKAFAREREQVQLDQETGFSITELQRKQAMLNASK	binds	
endogenous Asef (protein, UniProt Q9NR80 1-690) MPWEEPAGEKPSCSHSQKAFHMEPAQKPCFTTDMVTWALLCISAETVRGEAPSQPRGIPHRSPVSVDDLWLEKTQRKKLQKQAHVERRLHIGAVHKDGVKCWRKTIITSPESLNLPRRSHPLSQSAPTGLNHMGWPEHTPGTAMPDGALDTAVCADEVGSEEDLYDDLHSSSHHYSHPGGGGEQLAINELISDGSVVCAEALWDHVTMDDQELGFKAGDVIEVMDATNREWWWGRVADGEGWFPASFVRLRVNQDEPADDDAPLAGNSGAEDGGAEAQSSKDQMRTNVINEILSTERDYIKHLRDICEGYVRQCRKRADMFSEEQLRTIFGNIEDIYRCQKAFVKALEQRFNRERPHLSELGACFLEHQADFQIYSEYCNNHPNACVELSRLTKLSKYVYFFEACRLLQKMIDISLDGFLLTPVQKICKYPLQLAELLKYTHPQHRDFKDVEAALHAMKNVAQLINERKRRLENIDKIAQWQSSIEDWEGEDLLVRSSELIYSGELTRVTQPQAKSQQRMFFLFDHQLIYCKKDLLRRDVLYYKGRLDMDGLEVVDLEDGKDRDLHVSIKNAFRLHRGATGDSHLLCTRKPEQKQRWLKAFAREREQVQLDQETGFSITELQRKQAMLNASKQQVTGKPKAVGRPCYLTRQKHPALPSNRPQQQVLVLAEPRRKPSTFWHSISRLAPFRK		binds
